PubChem BioAssay AID1259254 | NCATS | 2017

- Screen: 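Gene knock-downs that lead to re-replication, shown by excess G2 DNA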 (primary screen)
- System: human HCT116 colorectal cancer cells
- Knock-down reagent: single siRNA against human genes
- Time to read-out: 3 days
- Measurement: 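Imaged Hoechst DNA stain sorts each cell into a cycle phase by DNA amount; per plate, G2 fraction set to 0% for non-targeting and 100% for GMNN siRNA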
- Scale: G2 robust z-score: higher = more G2 cells, more excess DNA replication
- Rule for the call: 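An siRNA counts as active if its G2 robust z-score lies at least 5 MADs above the screen median; here such calls match roughly 38% of GMNN control or more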
Shown is one part, drawn at random, of about 59,000 reagents. About 1,550 of them (2.6%) were called active. 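G2 share is only a proxy for re-replication; each gene was hit by three separate siRNAs, and active genes were retested.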 Entries without a mark were called inactive. Reagents against one gene are numbered here. Further read-outs or replicates are left out here. No sequences are given here. The record does not give: the amount of reagent.

no.	gene	reagent no.	G2 robust z-score
1	SOX30	1	0.15
2	SOX30	2	-0.884
3	SOX30	3	0.679
4	CHST6	1	-0.836
5	CHST6	2	1.08
6	CHST6	3	-0.505
7	VDAC3	1	-1.46
8	VDAC3	2	1.98
9	VDAC3	3	0.503
10	STRA8	1	0.581
11	STRA8	2	-0.624
12	STRA8	3	0.842
13	KRTAP9-3	1	0.741
14	KRTAP9-3	2	0.864
15	KRTAP9-3	3	1.92
16	GRK6	1	-1.21
17	GRK6	2	0.103
18	GRK6	3	-0.461
19	CLEC2B	1	-0.496
20	CLEC2B	2	-0.0489
21	CLEC2B	3	3.04
22	TUBA3C	1	-0.425
23	TUBA3C	2	-0.489
24	TUBA3C	3	3.5
25	DDOST	1	-0.551
26	DDOST	2	1.95
27	DDOST	3	2.12
28	CTDSP1	1	0.189
29	CTDSP1	2	4.88
30	CTDSP1	3	5.46 (active)

Taken from above:
Entry for CLEC2B #1 in “G2 robust z-score”: -0.496
Under “G2 robust z-score”, VDAC3 #3 has 0.503
VDAC3 #2, G2 robust z-score → 1.98
CHST6 #3, G2 robust z-score → -0.505
DDOST #3, G2 robust z-score → 2.12
